Results: patent CN117990807A
These are yes or no findings as the source states them, for the method shown. Some entries that bind do so weakly or less than the wild type.

Molecular target: 猴TSLP-His (食蟹猴TSLP) (cynomolgus monkey)
Test: ELISA, cynomolgus TSLP-His coated

binding | Binder
binds | 人源化抗TSLP单克隆抗体HA-Ⅰ (antibody, human IgG1, kappa, L234A L235A, V domains shown) VH: QVQLVQSGAEVKKPGASVKVSCKASGYTFTSYWMHWVRQAPGQGLEWIGLIDPSDSDTTYNQKFKGRATLTVDTSTSTAYMELSSLRSEDTAVYYCSRSLDGYFDHWGQGTLVTVSS VL: DIVMTQSPSSLSASVGDRVTITCRASENIYSYLAWYQQKPGKSPKLLVYNARTLAEGVPSRFSGSGSGTDFTLTISSLQPEDFATYYCQHHYGTPWTFGGGTKVEIKR
binds | 人源化抗TSLP单克隆抗体HA-Ⅱ (antibody, human IgG1, kappa, L234A L235A, V domains shown) VH: QVQLVQSGAEVKKPGASVKVSCKASGYTFTSYWMHWVRQAPGQGLEWIGLIDPSDSDTTYNQKFKGRATLTVDTSTSTAYMELSSLRSEDTAVYYCSRSLDGYFDHWGQGTLVTVSS VL: DIVMTQSPSSLSASVGDRVTITCRASENIYSYLAWYQQKPGKAPKLLVYNARTLAEGVPSRFSGSGSGTDFTLTISSLQPEDFATYYCQHHYGTPWTFGGGTKVEIKR
